{"source": "PubChem BioAssay AID743454, Peter MacCallum Cancer Centre, 2014", "aim": "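Search for knock-downs that restore vorinostat killing in resistant colon cancer cells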 (primary screen)", "cells": "human HCT116-VR colon cancer cells, selected for vorinostat resistance", "knock-down reagent": "siRNA pool against human genes, 40 nM siRNA pool", "timing": "vorinostat for 24 h, read-out about 72 h after transfection", "conditions": "vorinostat at 2.5 µM final", "detection": "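Two measures, CellTiter-Fluor viability and luminescent caspase 3/7 activity, each as fold change against same-plate mock wells, mean of duplicates, then screen-wide robust z-score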", "reading the numbers": "viability robust z-score: higher = more viable cells than screen typical; caspase robust z-score: higher = more caspase 3/7 activity than screen typical", "rule for the call": "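Hits are knock-downs in viability class RV1/RV2 or caspase class CA1/CA2, excluding ones that killed cells in the no-drug cell-count arm; hits then retested with single siRNAs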", "note": "Shown is one part, drawn at random, of about 18,000 reagents. Of all reagents, 450 (2.5%) got an active call. 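Single biological run; no consistent viability z cut-off exists, so the class columns, not z-scores, define the calls.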 Unmarked entries are inactive. Reagent sequences are not shown."}
{"gene knocked down": "CLK1", "viability hit class": "no change", "caspase hit class": "no change", "viability robust z-score": 0.12, "caspase robust z-score": -1.11}
{"gene knocked down": "SPICE1", "viability hit class": "no change", "caspase hit class": "no change", "viability robust z-score": -0.56, "caspase robust z-score": 3.89}
{"gene knocked down": "PRAME", "viability hit class": "no change", "caspase hit class": "no change", "viability robust z-score": 0.68, "caspase robust z-score": -0.43}
{"gene knocked down": "TSLIG3A", "viability hit class": "no change", "caspase hit class": "no change", "viability robust z-score": -0.9, "caspase robust z-score": 3.27}
{"gene knocked down": "CCDC47", "viability hit class": "no change", "caspase hit class": "no change", "viability robust z-score": -1.07, "caspase robust z-score": 1.82}
{"gene knocked down": "NCK2", "viability hit class": "no change", "caspase hit class": "no change", "viability robust z-score": -0.44, "caspase robust z-score": 1.86}
{"gene knocked down": "ACSL6", "viability hit class": "no change", "caspase hit class": "no change", "viability robust z-score": 0.39, "caspase robust z-score": -0.01}

Ordered by “viability robust z-score” (high to low): 2 of the entries above.
{"gene knocked down": "CLK1", "viability hit class": "no change", "caspase hit class": "no change", "viability robust z-score": 0.12, "caspase robust z-score": -1.11}
{"gene knocked down": "SPICE1", "viability hit class": "no change", "caspase hit class": "no change", "viability robust z-score": -0.56, "caspase robust z-score": 3.89}

Further reagents:
{"gene knocked down": "C8orf74", "viability hit class": "no change", "caspase hit class": "no change", "viability robust z-score": 0.32, "caspase robust z-score": 1.68}
{"gene knocked down": "OR5B2", "viability hit class": "no change", "caspase hit class": "no change", "viability robust z-score": 1.15, "caspase robust z-score": 1.07}
{"gene knocked down": "TEX47", "viability hit class": "no change", "caspase hit class": "no change", "viability robust z-score": -0.42, "caspase robust z-score": -0.38}
{"gene knocked down": "ZNF586", "viability hit class": "no change", "caspase hit class": "no change", "viability robust z-score": -1.23, "caspase robust z-score": 0.33}
{"gene knocked down": "HEXD", "viability hit class": "no change", "caspase hit class": "no change", "viability robust z-score": -0.46, "caspase robust z-score": -0.77}
